# Data as given in PubChem BioAssay AID504774 (Drosophila RNAi Screening Center, 2011)
# Test: 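Genes required for cells to withstand methyl methanesulphonate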 (primary screen)
# Cells: Drosophila Kc167 cells
# Reagents: long dsRNA against Drosophila genes, about 0.25 µg dsRNA per well
# Duration: about 6 days: 3 days knock-down, then 3 days with or without MMS
# Conditions: methyl methanesulphonate 0.004% (w/v) for 3 days after knock-down
# Measured: 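ATP-dependent luminescence as a measure of live cells in MMS-exposed wells, quantile normalised within each plate, with replicate values also given as a mean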
# Scale: mean viability with MMS and viability with MMS: higher = more surviving cells after MMS
# In all, the deposit lists about 23,000 reagents; below is an unselected part of those with a known target gene and a result. 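Values are quantile-normalised luminescence on an arbitrary scale; higher means more cells surviving MMS.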
Target gene,dsRNA,mean viability with MMS,"viability with MMS, replicate 1","viability with MMS, replicate 2"
pico,DRSC19430,3.59e6,4.16e6,3.96e6
raptor,DRSC18359,3.14e6,3.57e6,3.58e6
scat,DRSC02722,3.73e6,4.24e6,4.26e6
CG12991,DRSC19511,3.58e6,4.11e6,3.99e6
CG11211,DRSC04851,3.59e6,4.16e6,4.00e6
CG32756,DRSC22505,3.46e6,3.94e6,3.96e6
CG32756,DRSC23271,3.67e6,4.12e6,4.21e6
ND-B14.5AL,DRSC11795,3.37e6,3.89e6,3.70e6
Fem-1,DRSC07322,3.54e6,4.00e6,4.01e6
CG42750,DRSC02458,3.22e6,3.46e6,3.46e6
CG42750,DRSC03019,3.30e6,3.81e6,3.64e6
CG42750,DRSC03024,3.37e6,3.79e6,3.81e6
CG42750,DRSC21414,3.59e6,4.12e6,4.02e6
CG42750,DRSC23218,3.61e6,4.10e6,4.10e6
His3.3B,DRSC17773,3.50e6,3.85e6,4.07e6
His3.3B,DRSC18673,3.35e6,3.79e6,3.84e6
Dsor1,DRSC18462,3.43e6,3.92e6,3.83e6

4 entries from above, arranged by “viability with MMS, replicate 1”, low to high:
Target gene,dsRNA,mean viability with MMS,"viability with MMS, replicate 1","viability with MMS, replicate 2"
raptor,DRSC18359,3.14e6,3.57e6,3.58e6
CG12991,DRSC19511,3.58e6,4.11e6,3.99e6
CG11211,DRSC04851,3.59e6,4.16e6,4.00e6
scat,DRSC02722,3.73e6,4.24e6,4.26e6

The listing continues.
Target gene,dsRNA,mean viability with MMS,"viability with MMS, replicate 1","viability with MMS, replicate 2"
CG3777,DRSC18489,1.90e6,4.07e6,4.07e6
MED22,DRSC18175,3.41e6,3.89e6,3.85e6
Shmt,DRSC18264,3.42e6,3.89e6,3.89e6
Sb,DRSC16851,3.45e6,3.92e6,3.88e6
CG4269,DRSC04457,3.96e6,4.50e6,4.33e6
Ada3,DRSC20321,3.50e6,3.94e6,3.99e6
Ada3,DRSC20322,3.62e6,3.99e6,4.20e6
Fkbp12,DRSC07425,3.64e6,4.11e6,4.11e6
luna,DRSC05253,3.56e6,3.95e6,4.10e6
luna,DRSC06663,2.74e6,3.56e6,3.58e6
luna,DRSC07336,3.30e6,4.16e6,4.15e6
